# Values of other authors in paper PMC11314731 (Polymers, 2024).
# Details: cited from earlier work
smiles,measurement,value
"CC(=O)O[C@H]1C(=O)[C@@]2(C)[C@H]([C@H](OC(=O)c3ccccc3)[C@]3(O)C[C@H](OC(=O)[C@H](O)[C@@H](NC(=O)c4ccccc4)c4ccccc4)C(C)=C1C3(C)C)[C@]1(OC(C)=O)CO[C@@H]1C[C@@H]2O [PTX, Paclitaxel]",solubility in water,~ 0.3 μg/mL
